# Results of single-concentration screens

The values are deposited in ChEMBL (CHEMBL3988442, “University of Dundee, Small-Polar-MMV Screening Library” (2021)).

Results are given as percent effect. The record does not define 0% and 100%; most values in the screen are far below 50% and negative numbers occur (in some assays of this library far below -100). Compounds were drawn at random from those tested, without regard to their results. Two or more numbers in one place are separate tests of the same structure; such repeats can differ widely.

A: 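Phenotypic screen: M. tuberculosis growth, glucose 7H9 medium, 3 days; the read-out is not stated. Compounds at 50 µM. The record gives no direction; compounds that gave an IC50 in retests scored well above the rest, so higher reads as more growth inhibition. Size under these conditions: about 69,000 compounds, about 760 of them at 50% or above in at least one test.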
B: 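Growth of Mycobacterium tuberculosis over 4 days (cholesterol / DPPC medium with tyloxapol); the read-out is not stated. Concentration: 50 µM. Higher reads as more growth inhibition (inferred: compounds with an IC50 in retests scored well above the rest). Of about 69,000 compounds tested this way, about 370 (0.54%) reached 50% or more in at least one test.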

* Cl.c1cc(OCc2ccc3c(c2)OCO3)ccc1CNC1CC1 | A: -48.53% and 1.999%; B: -16.38%
* Cc1ncnc2c1CCN(Cc1ccc3c(c1)OCO3)CC2.O=C(O)C(F)(F)F | A: 0.6372%; B: -9.23%
* Cc1ccc(Oc2cc(F)ccc2O[C@@H]2CCC[C@@H](N)[C@H]2O)cc1 | A: 70.98%; B: 34.54%
* Cc1oc(C(=O)O)cc1S(=O)(=O)Nc1ccc(Br)cc1Cl | A: -8.184%; B: -2.933%
* O=c1cc(CN(CCO)C2CC2)nc2ccc(Br)cn12 | A: 29.79%; B: 17.46% and 2.525%
* O=C(c1ccc[nH]1)N1CCCn2cnc(COCC3CC3)c2C1 | A: -25.49%; B: -5.003% and -16.42%
* Cc1ccc(C)c(OC2CCN(C(=O)c3ccc(O)nc3)CC2)c1 | A: 8.017%; B: 14.63%
* CCCS(=O)(=O)NC(C)C(=O)NCc1ccc(N2CCCC2)nc1 (centres unmarked) | A: -8.452%; B: -31.96%
* Cc1ccccc1NC(=O)Nc1c[nH]c(=O)[nH]c1=O | A: 23.76%; B: 9.37%
* Cc1cnn(CCNCC(=O)N2CCN(c3ccccc3)CC2)c1 | A: -27.47%; B: -1.51%
* O=C(NC1CCNC1)C1(N2CCCCC2)Cc2ccccc2C1 (centres unmarked) | A: 33.69%; B: -1.47% and 11.68%
* O=C(c1ccco1)N1CCc2ncnc(NCc3ccccn3)c2CC1 | A: 5.514%; B: -6.351%
* [H][C@@]12OCCN(C(=O)CC3=CCCCC3)[C@@]1([H])CC[C@@H]2OCC | A: -0.8391%; B: -15.25%
* CCCn1nc(C2CCNCC2)n(Cc2ccccc2)c1=O | A: -18.14%; B: 2.709%
* [H][C@@]12CCN(C(C)=O)C[C@]1(C(=O)NCc1ccco1)CCO2 | A: -8.666%; B: -3.422%
* Cc1nn(C)c2nc(N3CCNC(=O)C3C(C)C)sc12 (centres unmarked) | A: -11.77%; B: -10.64%
* Cc1nn(C)c2cnn(CC(=O)NCCc3ccccc3)c12 | A: -13.27%; B: -1.716%
* N#Cc1cc(F)ccc1CN1CCCC1Cn1cccn1 (centres unmarked) | A: -0.8565% and -27.46%; B: -2.25%
* Cc1ccccc1[C@@H]1CN(C(=O)c2ccc3[nH]nnc3c2)C[C@H]1C(=O)O | A: 2.71%; B: -7.368%
* O=C(O)C(F)(F)F.[H][C@@]12CN(c3cccnc3)CC[C@]1([H])CN(c1cccc(F)c1)C2 | A: 34.96%; B: 14.57% and 37.89%
* Cc1cnn(C2CCCN(C(=O)c3cc(C)sc3C)C2)c1 (centres unmarked) | A: -14.28% and 0.1672%; B: -19.03%
* Cc1ccc(CN(C)C(=O)NCC(C)(C)CCS(C)(=O)=O)s1 | A: 9.844%; B: 23.52%
* Cc1ccc(C(=O)N2CCCn3nc(CCC(=O)O)cc3C2)cc1Cl | A: -6.198%; B: -8.46% and 0.5065%
* CC(NC(=O)c1cc2n(n1)CCCN(C)C2)c1cn2ccsc2n1 (centres unmarked) | A: 38.8%; B: -56.63%
* Cc1ncc(-c2ccncc2)c(C2CCN(C(=O)c3ccno3)CC2)n1 | A: -7.632%; B: 2.485% and -7.198%
* O=C(O)C(F)(F)F.[H][C@@]12COC[C@]1(C(=O)NCCc1cccs1)CN(C)C2 | A: 10.85%; B: -5.008%
* c1cc(CN2CCCC2)cc(-n2ccnc2-c2ccncc2)c1 | A: 12.3%; B: 3.008%
* Cc1nccn1CCC1CCCCN1Cc1cccc(CCN)c1 (centres unmarked) | A: -8.537%; B: -3.189% and -0.4993%
* CCN(Cc1ccccc1)C(=O)CN1CCCC(Cn2cncn2)C1 (centres unmarked) | A: 5.315%; B: 1.203%
* O=C(NC[C@H]1OC[C@@H](NCc2ccc(F)cc2)[C@@H]1O)N1CCOCC1 | A: -3.237% and -6.947%; B: -4.072%
* O=C(c1cccs1)N1CCC2(C1)c1ccccc1S(=O)(=O)N2CC1CC1 (centres unmarked) | A: -7.752%; B: -12.94%
* COC1CN(C(=O)Cc2cccs2)CCC(=O)N(C)c2ccccc21 (centres unmarked) | A: 9.015%; B: -10.34%
* CN1CCCN(C(=O)c2ccnn2-c2ccc3ccccn23)CC1.O=C(O)C(F)(F)F | A: 5.59%; B: 6.591%
* Nc1ccc(-c2ccc(F)cc2Cl)cn1 | A: 24.28% and 5.171%; B: 7.47%
* COC(=O)N1CCC(NC2CCSCC2)C1 (centres unmarked) | A: -14.61%; B: -23.65%
* Cn1cc(CCNC(=O)N2CCCC(c3nncn3C)C2)cn1 (centres unmarked) | A: 11.27%; B: -17.46%
* COc1ccc(OCC(=O)NS(=O)(=O)c2cc(F)ccc2F)cc1 | A: -7.467%; B: 13.44%
* CN(CCCc1cc(-c2cccc(F)c2)n[nH]1)C(=O)CCn1cncn1 | A: -20.16%; B: -23.11%
* CCCc1ccc2oc(C(=O)N3CCC(O)CC3)c(C)c2c1 | A: 17.87%; B: -2.277%
* Cc1ncccc1CNCC1CCN(CCO)CC1 | A: -23.14%; B: -9.366%